Results as given in publication PMC5496739.
Results are given in words; binding and its absence hold for the method and conditions named. In cells and extracts the contact can be indirect. Here binding means that the protein was enriched with, or labelled near, the bait; the list need not be complete.

Target: T1, MEF-exophilin-8 (wild type) (mouse) (UniProt Q8K3I4)
T1 sequence: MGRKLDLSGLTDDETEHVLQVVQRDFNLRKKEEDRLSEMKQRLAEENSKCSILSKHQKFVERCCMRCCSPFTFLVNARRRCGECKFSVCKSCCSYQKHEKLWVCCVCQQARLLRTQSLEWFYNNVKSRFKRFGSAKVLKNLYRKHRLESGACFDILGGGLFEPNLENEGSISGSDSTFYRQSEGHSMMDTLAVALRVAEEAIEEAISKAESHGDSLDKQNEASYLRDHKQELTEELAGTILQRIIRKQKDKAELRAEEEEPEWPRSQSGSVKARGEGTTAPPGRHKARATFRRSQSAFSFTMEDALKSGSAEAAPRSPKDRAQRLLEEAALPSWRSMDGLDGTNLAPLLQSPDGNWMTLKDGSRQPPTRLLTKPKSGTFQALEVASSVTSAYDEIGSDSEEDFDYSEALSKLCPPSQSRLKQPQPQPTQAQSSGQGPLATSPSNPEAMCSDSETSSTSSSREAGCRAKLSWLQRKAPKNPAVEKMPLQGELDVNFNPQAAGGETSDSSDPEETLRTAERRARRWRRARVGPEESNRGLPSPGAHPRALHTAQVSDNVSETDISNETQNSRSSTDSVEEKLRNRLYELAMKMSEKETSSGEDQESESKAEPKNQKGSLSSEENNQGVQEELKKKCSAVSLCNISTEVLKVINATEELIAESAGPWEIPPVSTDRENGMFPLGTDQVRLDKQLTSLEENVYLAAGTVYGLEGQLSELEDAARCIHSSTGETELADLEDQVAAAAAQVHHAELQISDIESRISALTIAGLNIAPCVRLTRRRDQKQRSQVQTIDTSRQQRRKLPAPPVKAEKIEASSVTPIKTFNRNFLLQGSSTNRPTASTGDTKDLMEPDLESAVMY
Assay: affinity purification with mass spectrometry; MIN6 cells expressing MEF-exophilin-8; anti-myc immunoprecipitation, TEV cleavage, anti-FLAG immunoprecipitation, FLAG peptide elution; SDS-PAGE, Oriole staining, bands analysed by nanoflow LC-MS/MS; control LacZ

binding: binds
B1: RIM-BP2, endogenous in MIN6 cells (protein, UniProt Q80U40 1-1072)
chain: MREAAERRQQLELEHEQALAFLNAKQQEIQLLQQAQVEAKKEHEGAVQLLESKVRELEEKCRVQSEQFNLLSRDLEKFRQHTGSIDLLGSSSVALLDVPLAPGKPFPQYMNGLATSIHKGHEGPTGHYSVIGDYIPLSGDKLESPCVKPSFLLRSSSPRCRFESEMDNDRNSNNSKQSSSGKVHLCVARYSYNPFDGPNENPEAELPLTAGKYLYVYGDMDEDGFYEGELLDGQRGLVPSNFVDFIQDNESRLAGTLGSEQDQNFLNHSGISLERDSILHLHSPTQVDSGITDNGGGTLDVNIDDIGEDTVPYPRKITLIKQLAKSVIVGWEPPAVPPGWGTVSSYNVLVDKETRMSLALGRRTKALIEKLNTAACTYRISVQCVTSRGNSDELQCTLLVGKDVVVAPSQLRVDNITQISAQLSWLPTNSNYSHIIFLNEEELDIVKAARYKYQFFNLRPNMAYKVKVLAQPHQMPWQLPLEQREKKEACVEFSTLPAGPPAPPQDVTVHAGATAASVQVSWKPPALTPTGLSNGANVTGYGVYAKGQRVAEVIAPTADGTAVELIRLRSLEAKAVSVRTLSVQGESMDSALAAIPPDLLVPPAPHPRTAPPPKPLASDMDTKDQHLGPHVKVDESWEQSRSPGPAHGHMLEPPDMHSAGPGRRSPSPSRILPQPQGAPVSTTVAKAMAREAAQRVAESNRLEKRSLFLEQSSAGQYTNSDEEDGYASPEVKRRGTSVDDFLKGSELGKQPHCCHGDEYHTESSRGSDLSDIMEEDEEELYSEMQLEDGGRRRPSGTSHNALKILGNSTLMGRADRMEHVSRRYSHSGGGSHRHRPAMAPSIDEYTGRDHLSPDFYDESETDPGAEELPARIFVALFDYDPLTMSPNPDAAEEELPFKEGQIIKVYGDKDADGFYRGETCARLGLIPCNMVSEIHADDEEMMDQLLRQGFLPLNTPVEKIERSRRSGRGHSVPTRRMVALYDYDPRESSPNVDVEAELPFCTGDIITVFGEIDEDGFYYGELNGQKGLVPSNFLEEVPDDVEVHLSDAPPHYSHDPPMRSKAKRKKSVHFTP
